Test [1] addresses GFP-tagged STXBP1^WT (ALPHAScreen) (UniProt P61765). The test can be described thus: AlphaScreen or HTRF; protein pair co-expressed in Leishmania tarentolae extract (one with C-terminal GFP, the other with C-terminal Cherry-cMyc), diluted in 25 mM HEPES, 50 mM NaCl; biotin-coupled GFP-nanotrap on streptavidin donor beads, anti-cMyc acceptor beads; room temperature. (In general: Alpha assays give light when donor and acceptor beads are brought close together.)

Sequences of proteins named here, by UniProt entry; tags and fusion partners are left off.
UniProt P61765: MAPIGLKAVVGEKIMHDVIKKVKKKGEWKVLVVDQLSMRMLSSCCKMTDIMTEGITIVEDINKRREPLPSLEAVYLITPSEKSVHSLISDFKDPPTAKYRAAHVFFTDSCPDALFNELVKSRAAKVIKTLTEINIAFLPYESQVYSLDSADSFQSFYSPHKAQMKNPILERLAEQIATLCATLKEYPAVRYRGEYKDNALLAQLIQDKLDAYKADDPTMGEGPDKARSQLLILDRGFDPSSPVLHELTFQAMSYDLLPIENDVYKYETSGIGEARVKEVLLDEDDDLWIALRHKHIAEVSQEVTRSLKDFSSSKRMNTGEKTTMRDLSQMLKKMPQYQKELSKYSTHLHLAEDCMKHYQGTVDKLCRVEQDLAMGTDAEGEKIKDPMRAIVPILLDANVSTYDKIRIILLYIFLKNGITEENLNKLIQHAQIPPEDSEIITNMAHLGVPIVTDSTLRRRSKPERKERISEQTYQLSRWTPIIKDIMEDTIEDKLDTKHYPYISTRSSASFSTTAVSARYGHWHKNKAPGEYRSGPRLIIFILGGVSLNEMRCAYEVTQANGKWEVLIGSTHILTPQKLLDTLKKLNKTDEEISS

In test [2] the target is STXBP1-emGFP (pCMV-STXBP1-emGFP) (UniProt P61765). The test can be described thus: co-IP; GFP-trap (anti-GFP magnetic beads, 1 h at 4 °C) on lysates of transfected PC12 or STXBP1/2 DKO PC12 cells, non-stimulated or stimulated (high K+ in the text, 2 mM BaCl2 in legend and methods); western blot.

These are yes or no findings as the source states them, for the method shown. For some of these results: In cells and extracts the contact can be indirect. Some entries that bind do so weakly or less than the wild type. For some of these results: Tags and fused reporters may be left off the sequences shown.

B1: myc-tagged PNPLA1 (ALPHAScreen) (enzyme, UniProt Q8N8W4 1-532)
chain: MEEQVFKGDPDTPHSISFSGSGFLSFYQAGAVDALRDLAPRMLETAHRFAGTSAGAVIAALAICGIEMDEYLRVLNVGVAEVKKSFLGPLSPSCKMVQMMRQFLYRVLPEDSYKVTTGKLHVSLTRLTDGENVVVSEFTSKEELIEALYCSCFVPVYCGLIPPTYRGVRYIDGGFTGMQPCAFWTDAITISTFSGQQDICPRDCPAIFHDFRMFNCSFQFSLENIARMTHALFPPDLVILHDYYYRGYEDAVLYLRRLNAVYLNSSSKRVIFPRVEVYCQIELALGNECPERSQPSLRARQASLEGATQPHKEWVPKGDGRGSHGPPVSQPVQTLEFTCESPVSAPVSPLEQPPAQPLASSTPLSLSGMPPVSFPAVHKPPSSTPGSSLPTPPPGLSPLSPQQQVQPSGSPARSLHSQAPTSPRPSLGPSTVGAPQTLPRSSLSAFPAQPPVEELGQEQPQAVALLVSSKPKSAVPLVHVKETVSKPYVTESPAEDSNWVNKVFKKNKQKTSGTRKGFPRHSGSKKPSSKVQ
On to B1, for which the binding result in test [1] is listed as “binds”.

B2: DDHD2, endogenous in PC12 cells (enzyme, UniProt D3ZJ91 1-699)
chain: MSSGESYQEQLSQSDPSPSPNSSSSFELLDMDVGSSYEPVSPHWFYCKVIDSKELWIPFNSEDSQQLEEAHGSGKDCNERVVPTDGGRYDVHLGERMRYAVYWDELPSEVRRCTWFYKGDKDNKYVPYSESFSQVLEDTYMLAVTLDEWKKKLESPNREIIVLHNPKLMVHYQPITGSDEWGSTSTEQGRPRSVKRGVESIPVDIHCGEPLQIDHLVFVVHGIGPACDLRFRSIVQCVNDFRSVSLNLLQTHFKKAQENQQIGRVEFLPVNWHSPLHSTGVDIDLQRITLPSINRLRHFTNDTILDVFFYNSPTYCQTIVDTVASEMNRIYTLFLQRNPDFKGGVSIAGHSLGSLILFDILTNQKDSIGDIDSEKGSLSTAEDLGDVSTLEEELKKLQLSEFVTVFEKEKVDREALALCTDRDLQEMGIPLGPRKKILNHFSATKSSVGINRPTMSASEVNIPKEKGDYLDVGIGQVSVKYPRLNYKPEIFFAFGSPIGMFLTVRGLRRIDPNYKFPTCKGFFNIYHPFDPVAYRIEPMVVPGVEFEPMLIPHHKGRKRMHLELREGLTRMSMDLKNNLLGSLRMAWKSFTRAPYPALQASEMAEDTEAESEPSSEKPSDANTEEPPVEVKEEAPINVGMLNGGQRIDYVLQEKPIESFNEYLFALQSHLCYWESEDTVLLVLKEIYQTQGIFLDQPLQ
For B2, in test [2], the binding result is on record as “binds”.

B3: myc-tagged DDHD2 (ALPHAScreen) (enzyme, UniProt O94830 1-711)
chain: MSSVQSQQEQLSQSDPSPSPNSCSSFELIDMDAGSLYEPVSPHWFYCKIIDSKETWIPFNSEDSQQLEEAYSSGKGCNGRVVPTDGGRYDVHLGERMRYAVYWDELASEVRRCTWFYKGDKDNKYVPYSESFSQVLEETYMLAVTLDEWKKKLESPNREIIILHNPKLMVHYQPVAGSDDWGSTPTEQGRPRTVKRGVENISVDIHCGEPLQIDHLVFVVHGIGPACDLRFRSIVQCVNDFRSVSLNLLQTHFKKAQENQQIGRVEFLPVNWHSPLHSTGVDVDLQRITLPSINRLRHFTNDTILDVFFYNSPTYCQTIVDTVASEMNRIYTLFLQRNPDFKGGVSIAGHSLGSLILFDILTNQKDSLGDIDSEKDSLNIVMDQGDTPTLEEDLKKLQLSEFFDIFEKEKVDKEALALCTDRDLQEIGIPLGPRKKILNYFSTRKNSMGIKRPAPQPASGANIPKESEFCSSSNTRNGDYLDVGIGQVSVKYPRLIYKPEIFFAFGSPIGMFLTVRGLKRIDPNYRFPTCKGFFNIYHPFDPVAYRIEPMVVPGVEFEPMLIPHHKGRKRMHLELREGLTRMSMDLKNNLLGSLRMAWKSFTRAPYPALQASETPEETEAEPESTSEKPSDVNTEETSVAVKEEVLPINVGMLNGGQRIDYVLQEKPIESFNEYLFALQSHLCYWESEDTVLLVLKEIYQTQGIFLDQPLQ
As to B3, in test [1], the binding entry is given as “binds”.

B4: myc-tagged PAPLA1 (ALPHAScreen) (enzyme, UniProt Q8NEL9 1-900)
chain: MNYPGRGSPRSPEHNGRGGGGGAWELGSDARPAFGGGVCCFEHLPGGDPDDGDVPLALLRGEPGLHLAPGTDDHNHHLALDPCLSDENYDFSSAESGSSLRYYSEGESGGGGSSLSLHPPQQPPLVPTNSGGGGATGGSPGERKRTRLGGPAARHRYEVVTELGPEEVRWFYKEDKKTWKPFIGYDSLRIELAFRTLLQTTGARPQGGDRDGDHVCSPTGPASSSGEDDDEDRACGFCQSTTGHEPEMVELVNIEPVCVRGGLYEVDVTQGECYPVYWNQADKIPVMRGQWFIDGTWQPLEEEESNLIEQEHLNCFRGQQMQENFDIEVSKSIDGKDAVHSFKLSRNHVDWHSVDEVYLYSDATTSKIARTVTQKLGFSKASSSGTRLHRGYVEEATLEDKPSQTTHIVFVVHGIGQKMDQGRIIKNTAMMREAARKIEERHFSNHATHVEFLPVEWRSKLTLDGDTVDSITPDKVRGLRDMLNSSAMDIMYYTSPLYRDELVKGLQQELNRLYSLFCSRNPDFEEKGGKVSIVSHSLGCVITYDIMTGWNPVRLYEQLLQKEEELPDERWMSYEERHLLDELYITKRRLKEIEERLHGLKASSMTQTPALKFKVENFFCMGSPLAVFLALRGIRPGNTGSQDHILPREICNRLLNIFHPTDPVAYRLEPLILKHYSNISPVQIHWYNTSNPLPYEHMKPSFLNPAKEPTSVSENEGISTIPSPVTSPVLSRRHYGESITNIGKASILGAASIGKGLGGMLFSRFGRSSTTQSSETSKDSMEDEKKPVASPSATTVGTQTLPHSSSGFLDSAYFRLQESFFNLPQLLFPENVMQNKDNALVELDHRIDFELREGLVESRYWSAVTSHTAYWSSLDVALFLLTFMYKHEHDDDAKPNLDPI
Turning to B4, in test [1], the binding entry was “binds”.
